Data as given in patent US4668770A, “Renin inhibitory tripeptides” (Merck & Co., Inc., priority 1984, dated 1987).
For at least one compound, name, drawing or mass did not settle the structure. Non-standard residues stand in square brackets, D forms with d. Residues, ends and D or L forms follow the SMILES beside them. Sta = CC(C)C[C@H](N)[C@@H](O)CC(=O)O

By UniProt entry, the sequences of proteins in these tests, tags left out. Residues count along the entry.
UniProt A0A287APG1, 67-407: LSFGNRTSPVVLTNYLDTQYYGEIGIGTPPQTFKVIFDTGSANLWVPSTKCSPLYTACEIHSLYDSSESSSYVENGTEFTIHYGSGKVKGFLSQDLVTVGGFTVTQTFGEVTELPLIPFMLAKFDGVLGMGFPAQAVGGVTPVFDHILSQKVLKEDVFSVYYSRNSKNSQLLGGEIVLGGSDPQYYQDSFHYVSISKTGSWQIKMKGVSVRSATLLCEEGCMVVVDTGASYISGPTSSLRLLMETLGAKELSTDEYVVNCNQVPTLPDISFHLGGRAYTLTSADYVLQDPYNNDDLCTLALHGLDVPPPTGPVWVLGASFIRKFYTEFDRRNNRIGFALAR

Target: hog kidney renin (Sus scrofa, UniProt A0A287APG1)
Assay: Hog renin inhibition
Format: biochemical
Conditions: pH 7.3, concentration producing 50% inhibition of renin activity, read-out: I50
Method: An assay was carried out in order to determine the inhibitory potency of the peptides of the present invention. The assay measured the inhibition of hog kidney renin, and was in accordance with the procedure described in Rich et al., J. Med. Chem. 23: 27, 1980, except that a pH of 7.3 was used. The results of the assay, illustrated in the table below, are expressed as I50 values, which refers to the concentration of peptide inhibitor necessary to produce 50% inhibition of renin activity. This I50 value is obtained typically by plotting data from four inhibitor concentrations.

| SMILES | IC50 [µM] |
| --- | --- |
| CC(C)C[C@H](NC(=O)C[C@H](O)[C@H](CC(C)C)NC(=O)[C@H](Cc1c[nH]cn1)NC(=O)C1c2ccccc2CCc2ccccc21)C(=O)NCc1ccccc1 [10,11-dihydro-5H-dibenzo[2,d]cycloheptenylcarbonyl-His-Sta-Leu-benzylamide] | 11 |
| COC(=O)[C@H](Cc1ccccc1)NC(=O)[C@H](Cc1ccccc1)NC(=O)C[C@H](O)[C@H](CC(C)C)NC(=O)[C@@H](N)Cc1c[nH]cn1 [His--Sta--Phe--Phe--methyl ester, His-Sta-Phe-Phe-methyl ester] (H-H[Sta]FF-OMe) | 400 |
